Assay [1] has as its target lamin A (human (endogenous in Caco-2)) (UniProt P02545). Put plainly: co-IP.
Assay [2] has as its target keratin 8 / keratin 18 (K8/K18) (human (endogenous in Caco-2)) (UniProt P05787+P05783). Put plainly: co-IP.

The chains behind the UniProt entries cited, without tags or fusion partners. Where a name states a change or a piece, a line headed by the entry shows the natural chain unless it says otherwise. Residues count along the entry.
UniProt P02545, residues 1-646: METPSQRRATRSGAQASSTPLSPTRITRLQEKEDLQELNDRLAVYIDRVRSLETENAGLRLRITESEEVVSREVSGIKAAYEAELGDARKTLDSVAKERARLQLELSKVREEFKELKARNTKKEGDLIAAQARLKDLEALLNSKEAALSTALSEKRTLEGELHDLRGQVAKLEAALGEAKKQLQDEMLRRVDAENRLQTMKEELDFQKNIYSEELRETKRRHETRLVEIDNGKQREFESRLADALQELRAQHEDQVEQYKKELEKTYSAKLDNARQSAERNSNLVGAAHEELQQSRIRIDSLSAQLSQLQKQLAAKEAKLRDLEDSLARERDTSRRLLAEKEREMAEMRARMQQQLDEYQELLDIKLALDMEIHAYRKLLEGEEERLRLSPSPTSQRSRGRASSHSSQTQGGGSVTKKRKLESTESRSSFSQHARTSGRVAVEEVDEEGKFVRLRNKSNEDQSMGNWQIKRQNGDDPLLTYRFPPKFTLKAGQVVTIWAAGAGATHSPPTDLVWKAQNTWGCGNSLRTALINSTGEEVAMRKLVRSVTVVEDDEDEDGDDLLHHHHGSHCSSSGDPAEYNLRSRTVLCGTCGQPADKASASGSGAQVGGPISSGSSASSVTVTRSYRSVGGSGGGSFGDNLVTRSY
UniProt P05787: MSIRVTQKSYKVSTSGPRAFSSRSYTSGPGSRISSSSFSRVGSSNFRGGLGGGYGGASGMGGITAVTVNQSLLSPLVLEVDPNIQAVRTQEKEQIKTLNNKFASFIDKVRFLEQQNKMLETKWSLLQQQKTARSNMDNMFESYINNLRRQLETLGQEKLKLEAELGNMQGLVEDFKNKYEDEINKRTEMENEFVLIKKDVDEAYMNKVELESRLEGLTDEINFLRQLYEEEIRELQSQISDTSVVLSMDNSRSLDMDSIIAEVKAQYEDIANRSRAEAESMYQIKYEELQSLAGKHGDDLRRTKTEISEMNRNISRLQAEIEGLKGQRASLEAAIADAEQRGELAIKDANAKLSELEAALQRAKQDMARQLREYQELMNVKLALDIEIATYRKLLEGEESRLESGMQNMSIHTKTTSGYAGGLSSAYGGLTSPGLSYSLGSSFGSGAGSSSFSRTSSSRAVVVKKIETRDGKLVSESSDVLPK
UniProt P05783: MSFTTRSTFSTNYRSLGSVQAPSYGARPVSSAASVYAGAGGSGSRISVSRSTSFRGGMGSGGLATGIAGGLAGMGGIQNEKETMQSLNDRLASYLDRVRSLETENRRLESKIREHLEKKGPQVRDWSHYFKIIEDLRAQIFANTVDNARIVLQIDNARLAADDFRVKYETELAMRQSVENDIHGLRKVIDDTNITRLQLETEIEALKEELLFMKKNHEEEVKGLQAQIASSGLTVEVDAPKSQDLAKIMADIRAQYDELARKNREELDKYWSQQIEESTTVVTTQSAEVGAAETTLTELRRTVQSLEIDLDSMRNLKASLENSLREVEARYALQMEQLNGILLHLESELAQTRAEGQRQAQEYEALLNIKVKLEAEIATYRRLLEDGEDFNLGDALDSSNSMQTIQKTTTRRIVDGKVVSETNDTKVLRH
UniProt P08727: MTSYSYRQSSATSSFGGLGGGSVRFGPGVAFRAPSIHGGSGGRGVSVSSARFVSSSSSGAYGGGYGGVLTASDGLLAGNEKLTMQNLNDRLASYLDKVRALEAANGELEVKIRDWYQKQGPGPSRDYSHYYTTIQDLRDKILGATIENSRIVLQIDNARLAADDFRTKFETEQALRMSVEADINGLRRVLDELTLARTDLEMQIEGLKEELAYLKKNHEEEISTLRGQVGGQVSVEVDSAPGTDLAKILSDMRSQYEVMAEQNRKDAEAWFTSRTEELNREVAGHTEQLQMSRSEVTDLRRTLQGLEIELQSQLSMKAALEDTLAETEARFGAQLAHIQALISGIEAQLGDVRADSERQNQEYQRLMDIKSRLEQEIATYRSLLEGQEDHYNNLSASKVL

These are yes or no findings as the source states them, for the method shown. Binding seen in cells or lysates may run through a third protein. Some entries that bind do so weakly or less than the wild type.

Consider “keratin 19 (K19) (from UniProt P08727 1-400)”, for which the binding entry in assay [1] is given as “binds”.
Turning to “keratin 8 / keratin 18 (K8/K18) (from UniProt P05787 1-483; P05783 1-430) (complex)”, in assay [1], the binding result is listed as “binds”.
In the case of lamin A (from UniProt P02545 1-646), the binding entry in assay [2] is on record as “binds”.

Source of the values: doi:10.1101/2020.06.22.164467.
